Measurements: paper PMC12877946
Results are given in words; binding and its absence hold for the method and conditions named. Binding seen in cells or lysates may run through a third protein. Some results given as binding are weak or reduced against the parent protein; the word gives no strength.

Sequences of proteins named here, by UniProt entry; tags and fusion partners are left off.
UniProt P49841: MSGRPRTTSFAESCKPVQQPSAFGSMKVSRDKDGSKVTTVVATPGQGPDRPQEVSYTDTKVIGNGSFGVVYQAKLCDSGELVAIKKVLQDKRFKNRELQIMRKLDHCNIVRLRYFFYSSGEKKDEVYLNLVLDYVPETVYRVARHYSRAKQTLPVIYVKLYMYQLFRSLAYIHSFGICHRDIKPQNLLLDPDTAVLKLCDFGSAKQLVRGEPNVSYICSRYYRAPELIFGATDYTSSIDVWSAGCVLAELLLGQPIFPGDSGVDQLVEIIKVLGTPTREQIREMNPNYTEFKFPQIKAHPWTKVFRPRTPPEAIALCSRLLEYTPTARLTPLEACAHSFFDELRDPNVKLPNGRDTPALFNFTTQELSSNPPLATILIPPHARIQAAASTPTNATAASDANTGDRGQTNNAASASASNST

Target: FLAG-tagged FTO (UniProt Q9C0B1)
Test: co-IP; HEK293T cells co-transfected with FLAG-tagged FTO and HA-tagged ubiquitin, with or without GSK3β; FTO immunoprecipitated with an anti-FLAG antibody, Western blotting

“GSK3β (from UniProt P49841 1-420) (enzyme)” was tested, and the binding was “binds”.
